According to patent US20250359758A1, “METHODS OF USING OPTICAL FIBER-BASED FLUORESCENCE SPECTROSCOPY FOR SURGICAL GUIDANCE AND/OR TISSUE DIAGNOSTICS AND APPLICATIONS OF SAME” (VANDERBILT UNIVERSITY, priority 2020, published 2025):

Tested on: parathyroid glands (PGs)
Assay: Fiber-optic probe (PTeye) detection of ICG fluorescence for parathyroid perfusion during surgery
Format: in vivo, human
Conditions: for Detection Ratio in PG*-Post 2 min, Ligated PGs (diseased) / Detection Ratio in PG*-Post 2 min, Unligated PGs (healthy): parathyroidectomy
Source text: According to the invention, by using the fiber optic probe based fluorescence detection system such as the PTeye, in conjunction with contrast agents such as ICG, IRDye 800CW or methylene blue, the PTeye can now be applied for tissue perfusion studies for a real-time quantitative feedback, especially for assessment of parathyroid perfusion during head and neck surgeries. First, a surgeon establishes baseline in patient and identifies all PGs using autofluorescence detection with the PTeye (without ICG, IRDye 800CW or methylene blue,). After identification of PGs, about 0.25-3.5 cc ICG (or IRDye 800CW, or methylene blue) is injected into the patient's bloodstream. After about 15-30 seconds, the PTeye probe is placed on the target PGs and the foot pedal is pressed. Detection level and Detection ratios for each PGs are recorded and compared.
Instrument Description: PTeye (AiBiomed, Santa Barbara, CA) comprises a console encasing a 785 nm laser source and a detector, a detachable and sterilizable fiber-optic probe, a foot pedal to activate NIR fluorescence measurements, and a display panel. The PTeye probe delivers laser light at a power of 20 mW over a spot size of about 400 μm. The PTeye is designed to detect NIR fluorescence without interference from ambient OR lights, which has been a limitation for other standard NIR imaging systems at present. Tissue NIR fluorescence recorded with the PTeye is conveyed to the display panel and to the loudspeaker as auditory feedback. The display panel informs the surgeon on the “detection level” (absolute tissue NIR fluorescence intensity), the “detection ratio” (tissue NIR fluorescence normalized to the thyroid NIR fluorescence intensity), and the “detection percentage” (the PTeye confidence in identifying PGs [calibrated to the “detection ratio”]). The auditory feedback commences once the “detection ratio” reaches a threshold value set for PG identification.
The surgeon first confers the degree of confidence in having identified PG tissue as high, moderate, or low, based on visual inspection of the tissue in view. […] In each patient, a NIRAF baseline was first established on the thyroid so that subsequent tissue NIRAF measurements in the patient could be normalized to this thyroid baseline for obtaining the “detection ratio”. The auditory feedback volume was kept inaudible and the PTeye display panel was turned away to decrease bias of the surgeon's judgment. The hand-held, probe-based PTeye provides real-time guidance in identifying the parathyroid gland during surgery. When parathyroid tissue is detected, the system provides an audio signal and visual display. The system accurately identified parathyroid glands 96.1% of the time. Similar processes are also applied in conjunction with near infrared contrast agents such as ICG for parathyroid angiography.
Evaluation of PTeye in an intraoperative setting for quantifying parathyroid perfusion using ICG: For testing the preliminary feasibility of PTeye for assessing parathyroid vascularity, patients who underwent parathyroidectomy were recruited for this aspect of the study. Prior to removal of the diseased PG, the blood supply to the gland is ligated as per routine procedure, which serves as a suitable imitation of PG devascularization for this study. After localizing the diseased PG and an adjacent healthy PG, 1 cc ICG (2.5 mg/ml) was subsequently administered into the patient's blood stream through the intravenous route. NIR fluorescence measurements were obtained from the exposed PGs before and after ICG administration.

[1] = 0.5 cc ICG (2.5 mg/ml) per injection, n = 3 PGs in 1 patient
[2] = 1 cc ICG (2.5 mg/ml) per injection, n = 6 PGs in 3 patients

## CC1(C)C(/C=C/C=C/C=C/C=C2\N(CCCCS(=O)(=O)O)c3ccc4ccccc4c3C2(C)C)=[N+](CCCCS(=O)(=O)[O-])c2ccc3ccccc3c21 [ICG, indocyanine green]
[1]
  Detection Ratio in PG*-Post 2 min, Ligated PGs (diseased): 1.8
  Detection Ratio in PG*-Post 2 min, Unligated PGs (healthy): 5.1-19.4
[2]
  Detection Ratio in PG*-Post 2 min, Ligated PGs (diseased): 1.6-21.0
  Detection Ratio in PG*-Post 2 min, Unligated PGs (healthy): 66.4-168.5
1 cc ICG, 28.5% of the standard ICG dose (3.5 cc)
  Time after ICG administration at which NIR fluorescence was still detected in perfused PG tissues: 1 h
4 parathyroidectomy patients, after gland ligation
  ICG fluorescence (detection ratio) of unligated PGs versus ligated PGs: significantly higher
ICG solution 2.5 mg/ml
  Lowest ICG dose whose NIR fluorescence the fiber-based detection is sensitive to: 0.25 cc
ICG solution 2.5 mg/ml, 0.25 cc per injection, n = 10 healthy unligated PGs, range over PGs
  Detection Ratio in PG*-Post 2 min: 4.5-32.8
ICG solution 2.5 mg/ml, 0.5 cc per injection, n = 1 healthy unligated PG
  Detection Ratio in PG*-Post 2 min: 19.4
ICG solution 2.5 mg/ml, 1 cc per injection, n = 2 healthy unligated PGs, range over PGs
  Detection Ratio in PG*-Post 2 min: 90.8-168.5
ICG solution 2.5 mg/ml, 3.5 cc per injection, n = 2 healthy unligated PGs, range over PGs
  Detection Ratio in PG*-Post 2 min: 274.8-374.4
In vivo
  Lowest ICG dose whose NIR fluorescence the fiber-based detection (PTeye) is sensitive to: 0.6 mg
  PTeye wait-time for ICG uptake: 15 to 30 s
